Test results as given in paper PMC8611336.
No constants are given. Whether binding was seen depends on the method and setting. Binding seen in cells or lysates may run through a third protein. Some binding calls cover weakened binding; strength is not graded here. Where a sequence is shown, tags or fusion partners need not be part of it.

B1: Brl1 (protein, UniProt P38770 1-471)
chain: MESFENLSIRDSFTSGMEHVDEELGGLSDLSISKQGPTLSPQLINRFMPHFPSSPSPLRNTLDFSAAKADEEEDDRMEIDEVDDTSFEEEYNNEPIETHTEATENAVVEEIEATPEERQKQEKNESQDQSVEEVENIVSPHRSTVIKALLSPTDLGVAAATKVEGVVPLPPSANQDDNESSNNNAEGEDIIRNEEVEDEIKSSLGNHKSSQYANAFDSEIIKRELRSRSKYQPIQVSFNTHNYFYSDKDGIKTYSLTKPNHNKIDEFYDQNEAFKLPKPWSPNSHPASRASYALMSYLQLFLNAITTVVIFSFILSFIIALQKDLKSTWEQRKHELQYESRICQEQYLTNRCNQTPGLPALGEQCAIWKQCMDRNNDIFFRARSTLSAKLFGDIINSFIDPLNWKTLFVIFCGVITWCFSSNFLLGFVRAKSYYGNGIKTYPLPSSPKSPTSEETHSSMTASGEDSHLLKQ
B2: Apq12-6HA (protein, UniProt P40532 1-138)
chain: MDATQPQYELSVVTQCLKSAIDVIQWLIPTITKFSQSHPLVFQLLFIFFTFYVFYKLLMNFITLVKRFLYLTLVVTCIGIYMRGSQQFLTVDLLNFYNFVMSNRYYAFKIYTLFINALEREINTVYHLAQMKMEQLLK

Target: T1, Brr6-yeGFP (budding yeast) (UniProt P53062)
T1 sequence: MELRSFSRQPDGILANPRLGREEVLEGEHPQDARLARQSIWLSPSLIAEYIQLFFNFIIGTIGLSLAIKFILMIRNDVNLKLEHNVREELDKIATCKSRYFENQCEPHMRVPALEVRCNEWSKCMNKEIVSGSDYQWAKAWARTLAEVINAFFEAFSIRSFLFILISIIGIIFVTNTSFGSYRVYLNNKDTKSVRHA
Assay: co-IP; Brr6-yeGFP precipitated from yeast lysate (0.5% Triton X-100) with GFP-Trap agarose beads, 2 h at 4°C; blots with anti-HA (Apq12-6HA) and anti-Brl1; APQ12 and apq12-ah backgrounds

| Binder | binding |
| --- | --- |
| B1 | binds |
| B2 | binds |
